From publication PMC3157345

Molecular target: SIRT3-FLAG
Experiment: co-IP; FLAG-IPs from HEK293T cells transiently expressing FLAG-tagged sirtuins (SIRT1-7 or SIRT3-5), immunoblotted for SDHA, OSCP, FLAG or with antibody cocktails against complex II and OXPHOS subunits

B1: ATP5O/OSCP (protein, UniProt P48047 24-213)
chain: FAKLVRPPVQVYGIEGRYATALYSAASKQNKLEQVEKELLRVAQILKEPKVAASVLNPYVKRSIKVKSLNDITAKERFSPLTTNLINLLAENGRLSNTQGVVSAFSTMMSVHRGEVPCTVTSASPLEEATLSELKTVLKSFLSQGQVLKLEAKTDPSILGGMIVRIGEKYVDMSVKTKIQKLGRAMREIV
binding: binds

B2: SDHB subunit of complex II (succinate dehydrogenase) (protein, UniProt P21912 29-280)
chain: AQTAAATAPRIKKFAIYRWDPDKAGDKPHMQTYEVDLNKCGPMVLDALIKIKNEVDSTLTFRRSCREGICGSCAMNINGGNTLACTRRIDTNLNKVSKIYPLPHMYVIKDLVPDLSNFYAQYKSIEPYLKKKDESQEGKQQYLQSIEEREKLDGLYECILCACCSTSCPSYWWNGDKYLGPAVLMQAYRWMIDSRDDFTEERLAKLQDPFSLYRCHTIMNCTRTCPKGLNPGKAIAEIKKMMATYKEKKASV
binding: binds

These are yes or no findings as the source states them, for the method shown. In cells and extracts the contact can be indirect. Binding can be weak; no strength is given.
